The values below come from PubChem BioAssay AID2685 (National Center for Advancing Translational Sciences (NCATS), 2010).

The list shows a part of the results. The main result of the screen is listed elsewhere. These columns were measured beside it and carry no call. Compounds called inactive in the main read-out are mostly missing here. The note in brackets gives the kind of curve behind each potency; many fits are weak.

A short description of the assay: qHTS Assay for Lipid Storage Modulators in Drosophila S3 Cells.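 As to cell number change: cells counted by Cell Tracker Red CMTPX staining in the red channel.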 Conditions: BODIPY lipid droplet fluorescence, 18-24 h; for cell number change: measured here: cell count max response, cells fed with added oleic acid. The essentials: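 Drosophila S3 cells loaded with oleic acid (400 uM, as added) and compounds at several concentrations; lipid droplets imaged by 488-nm laser-scanning cytometry, 500–530 nm intensity and object ratio to cell channel. Percent activity normalized to 20 uM Triacsin C.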

[1] abbreviates: measured here: cell number channel AC50, cells fed with added oleic acid.
[2] abbreviates: measured here: lipid fluorescence (Fed channel) AC50, cells fed with added oleic acid.

As for `Clc1ccc(CSc2nnc(-c3ccc4c(c3)OCO4)o2)cc1`, the cell number change is 88.7%. In addition, under setting [1], the AC50 is 20.6 µM [rising, single point].
As to `COCCNC(=O)c1c(N)n(CCC2=CCCCC2)c2nc3ccccc3nc12`, the AC50 runs as follows: under setting [1], 0.259 µM [rising, partial curve, poor fit]; under setting [2], 29.1 µM [falling, single point].
With `CN1C(=O)/C(=C/c2cc(N=Nc3ccccc3)ccc2O)SC1=S`, the cell number change was -34.5%. Moreover, the AC50 under setting [1] was 14.6 µM [falling, partial curve, poor fit]. Besides, the half-maximal activity concentration (AC50) under setting [2] was 3.66 µM [falling, full curve].
Regarding `COc1cc(C(=O)Nc2ccccc2N2CCOCC2)ccc1OCc1c(C)noc1C`, the cell number change amounted to 12%. The AC50 under setting [2] was 2.06 µM [rising, full curve].
On to `CC(C)C[C@@H](CC#N)N1CCN(Cc2ccccc2)CCC1=O`, for which the cell number change came to 23.3%. Further, the half-maximal activity concentration (AC50) under setting [2] was 16.4 µM [rising, single point].
Regarding `CCN1C(=NCC(C)C)N[C@@H](CCc2ccccc2)[C@H](C(=O)NCC(C)C)[C@H]1C`, the cell number change was found to be 29.4%. In addition, the AC50 under setting [2] is 20.6 µM [falling, single point].
As to `Cc1ccc(C(=O)N2CCC(C(=O)Nc3cccc([N+](=O)[O-])c3)CC2)cc1`, the AC50 under setting [2] was 29.1 µM [falling, single point].
On to `COCCN(C(=O)COC(=O)Cc1cccc(OC)c1)c1c(N)n(CC(C)C)c(=O)[nH]c1=O`, for which the cell number change was 1.81%. Also, the AC50 under setting [2] is 32.6 µM [rising, single point].
`COc1ccc(C(=O)Nc2nccs2)cc1OC`: the cell number change was 21.2%. Moreover, the AC50 under setting [2] was 1.84 µM [rising, partial curve].
Take `COc1ccc(N2CCN(C(=O)CNC(=O)Cc3ccc(Cl)cc3)CC2)cc1`: the cell number change came to 32.3%. Further, the AC50 under setting [1] is 0.00461 µM [rising, full curve, poor fit]. Also, the AC50 under setting [2] is 5.17 µM [rising, partial curve].
As for `CC1(C)CC(=O)C2=C(C1)OC(N)=C(C#N)C2C1C=CCCC1` (stereo unspecified), the cell number change amounted to 94.6%. The concentration at half-maximal activity (AC50) under setting [1] is 16.4 µM [rising, partial curve]. Also, the AC50 under setting [2] was 16.4 µM [rising, partial curve].
With `O=C(Cc1ccccc1)NC1CCSc2ccccc21` (stereo unspecified), the cell number change is -5.49%.
On to `Cc1ccc2[nH]c3c(c2c1)CCCC3NCCO` (stereo unspecified), for which the cell number change is 15.5%. Also, the AC50 under setting [2] is 29.1 µM [falling, single point].
As for `Cc1cc(SCc2ccccc2)nc(=O)[nH]1`, the cell number change was 24.4%. The AC50 under setting [2] is 29.1 µM [rising, single point].
On to `CC(C)(C)C(=O)CN1C(=O)C2(OCCO2)c2ccccc21`, for which the cell number change was 6.47%. Besides, under setting [2], the concentration at half-maximal activity (AC50) is 0.326 µM [falling, single point].
As for `CN(Cc1ccccc1)C(=O)COc1cccnc1[N+](=O)[O-]`, the cell number change was 21.8%. Further, under setting [2], the AC50 is 0.651 µM [rising, full curve].
Take `COc1ccc(OC)c(NC(=O)COC(=O)CCCN2C(=O)c3ccccc3C2=O)c1`: the cell number change came to 116%. Besides, under setting [1], the AC50 is 32.6 µM [rising, partial curve, poor fit].
On to `C/C(=N/NC(=O)CNC(=O)c1ccccn1)c1ccccc1`, for which the cell number change was -34.4%. Moreover, under setting [1], the AC50 was 0.58 µM [falling, full curve].
Turning to `CCn1c(CNC(=O)COc2ccc(C(C)C)cc2)nnc1SCC(=O)Nc1ccc(F)cc1`, the cell number change is 10%. The AC50 under setting [2] is 2.06 µM [falling, partial curve, poor fit].
Turning to `Cc1ccc(C2NNC(=O)C2NC(=O)c2ccccc2)cc1` (stereo unspecified), the cell number change was found to be 23.8%. Under setting [2], the concentration at half-maximal activity (AC50) was 1.3 µM [falling, full curve].
As to `NC(=O)CSc1nnc(-c2ccncc2)n1CCc1ccccc1`, the cell number change was -15%. Besides, the AC50 under setting [2] is 0.0517 µM [falling, full curve, poor fit].
As for `CC(Sc1ccc(Cl)cc1)C(=O)Nc1ccc(S(=O)(=O)N2CCOCC2)cc1` (stereo unspecified), the cell number change was -3.58%. In addition, the AC50 under setting [2] was 29.1 µM [falling, single point].
`Clc1ccc(-c2c[n+]3c(n2-c2ccccc2)SCC3)cc1`: the AC50 under setting [1] is 0.0731 µM [rising, full curve, poor fit].
Turning to `Cc1ccccc1CNC(=O)C(=O)NCC1OCCCN1S(=O)(=O)c1cccs1` (stereo unspecified), the cell number change stood at 4.62%. Moreover, the AC50 under setting [2] was 23.1 µM [rising, single point].
Regarding `NS(=O)(=O)c1ccc(CCNC(=O)C(c2ccccc2)c2ccccc2)cc1`, the cell number change is -2.86%. Under setting [2], the AC50 was 6.51 µM [rising, single point].
In the case of `O=c1cc(NCc2ccccc2)c2ccccc2o1`, the cell number change turned out to be 3.44%. The AC50 under setting [2] was 4.11 µM [rising, full curve, poor fit].
In the case of `C[C@@]1([C@@H](NC(=O)c2cccs2)c2ccc(-c3ccccc3)cc2)C[C@H]1C1CCCCC1`, the cell number change was 22.6%. For the same molecule, under setting [2], the AC50 was 7.31 µM [rising, partial curve].
For `CC(C)(CC(=O)O)CC(=O)NCc1c(Cl)cccc1Sc1ccc(Cl)cc1`, the cell number change came out at 19.3%. Also, the AC50 under setting [1] is 0.517 µM [falling, single point]. Also, the AC50 under setting [2] is 0.58 µM [falling, single point].
Turning to `COC(=O)CCc1ccc(O)cc1`, the cell number change stood at 7.68%. For the same molecule, the half-maximal activity concentration (AC50) under setting [2] is 6.51 µM [rising, single point].
Take `Cc1ccc(/C=C/S(=O)(=O)N2CCC(C(=O)O)CC2)cc1`: the cell number change was 8.37%. Moreover, the AC50 under setting [2] is 2.59 µM [rising, partial curve, poor fit].
As to `CCn1cc(C(=O)NCc2ccc(Cl)cc2)c(=O)c2cc(S(=O)(=O)N(C)C)ccc21`, the cell number change is 268%.
Turning to `CCCCn1c(N)c(N(CCOC)C(=O)c2sc3ccccc3c2Cl)c(=O)[nH]c1=O`, the cell number change was -19.8%. The AC50 under setting [2] is 1.46 µM [rising, partial curve].
`COc1cc(OC)c(OC)cc1CNC(=O)c1ccc(S(=O)(=O)N2CC(C)OC(C)C2)cc1` (stereo unspecified): the cell number change is -13.4%. In addition, the AC50 under setting [2] is 20.6 µM [falling, single point].
Consider `O=C(NCc1ccccc1)C(=O)Nc1nc(-c2ccccc2)cs1`, for which the cell number change stood at 14.2%. Besides, the AC50 under setting [1] is 0.00461 µM [rising, full curve, poor fit]. Further, the AC50 under setting [2] is 0.00461 µM [rising, full curve, poor fit].
Regarding `O=C(COc1ccc(Br)cc1)NC1CC1`, the cell number change amounted to 14.7%. The AC50 under setting [2] is 3.66 µM [rising, single point].
Consider `O=C(N/N=C/c1cn(-c2ccccc2)nc1-c1cccs1)c1ccc(Cl)cc1`, for which the cell number change was 7.29%. For the same molecule, the AC50 under setting [2] is 1.46 µM [rising, partial curve].
For the molecule `Cc1nc(NC(=O)CSc2nc3cccnc3n2C2CCCCC2)sc1C`, the cell number change is -0.158%.
As to `COc1ccc(NC(=O)C2CC(c3cccc(Br)c3)=NO2)cc1OC` (stereo unspecified), the cell number change was -9.38%. In addition, the half-maximal activity concentration (AC50) under setting [2] was 6.51 µM [rising, single point].

As a reminder, the AC50 is the concentration at which the activity in the assay is half-maximal. A lower AC50 goes with greater potency.
